Measurements reported in PubChem BioAssay AID1259331 (Drosophila RNAi Screening Center, 2017).

Aim: 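Genes whose knock-down changes cell survival under toxic zinc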 (primary screen)
Cell system: Drosophila S2R+ cells
Reagents: long dsRNA against Drosophila genes
Timing: 5 days (4 days knock-down, then 1 day zinc)
Conditions: zinc chloride at 15 mM final level for 1 day
Measurement: 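Total cellular ATP measured by luciferase luminescence as a viability proxy, turned into Z scores from three plate copies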
Reading the numbers: mean Z score: higher = more ATP than other wells, better survival under zinc; ATP luminescence: higher = more ATP, more viable cells
Hit rule: 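a reagent is called a hit when its Z score is above 1.5 or below -1.5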
Meaning of the calls: active = hit, ATP up or down; inactive = not a hit
This is an unselected part of about 3,100 reagents tested. 126 of them (4.1%) were called active. 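Calls are per reagent; zinc was so toxic that few knock-downs lowered ATP further, so most hits raise ATP.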 The raw values are shown without normalisation. A plus sign joins genes that one reagent is predicted to hit. Not stated in the record: the amount of reagent.

Knock-down of CG11566 (retired record) + stg1 [DRSC20482] came out at: mean Z score -0.0728; ATP luminescence, replicate 1 = 40999; ATP luminescence, replicate 2 = 42279; inactive.
For CG11566 (retired record) + stg1 [DRSC20483] the deposit lists mean Z score -0.276; ATP luminescence, replicate 1 = 35376; ATP luminescence, replicate 2 = 39318; inactive.
With knock-down of Or10a (Odorant receptor 10a) [DRSC20264], the screen gave mean Z score 0.477; ATP luminescence, replicate 1 = 67509; ATP luminescence, replicate 2 = 80561; inactive.
Against Or10a (Odorant receptor 10a) [DRSC27634], the entry reads mean Z score 0.216; ATP luminescence, replicate 1 = 63307; ATP luminescence, replicate 2 = 57734; inactive.
After knock-down of 5-HT1B (5-hydroxytryptamine (serotonin) receptor 1B) [DRSC05031] the results were mean Z score -0.424; ATP luminescence, replicate 1 = 59123; ATP luminescence, replicate 2 = 63736; inactive.
Against 5-HT1B (5-hydroxytryptamine (serotonin) receptor 1B) [DRSC25996], the entry reads mean Z score 0.246; ATP luminescence, replicate 1 = 60846; ATP luminescence, replicate 2 = 58677; inactive.

2 consecutive entries from above, for reference:
CG11566 (retired record) + stg1 [DRSC20482] → mean Z score = -0.0728; ATP luminescence, replicate 1 = 40999; ATP luminescence, replicate 2 = 42279; call = inactive
CG11566 (retired record) + stg1 [DRSC20483] → mean Z score = -0.276; ATP luminescence, replicate 1 = 35376; ATP luminescence, replicate 2 = 39318; call = inactive

Continued.
After knock-down of CG17637 [DRSC11740], the screen gave mean Z score -0.271; ATP luminescence, replicate 1 = 71831; ATP luminescence, replicate 2 = 53516; inactive.
Knock-down of CG7514 [DRSC08597] gave: mean Z score -0.123; ATP luminescence, replicate 1 = 74678; ATP luminescence, replicate 2 = 58780; inactive.
CG7514 [DRSC25670] gave mean Z score -0.336; ATP luminescence, replicate 1 = 42405; ATP luminescence, replicate 2 = 46194; inactive.
CG13223 [DRSC06344] showed mean Z score -0.0404; ATP luminescence, replicate 1 = 72470; ATP luminescence, replicate 2 = 68401; inactive.
Against CG13223 [DRSC39714], the entry reads mean Z score -0.458; ATP luminescence, replicate 1 = 58951; ATP luminescence, replicate 2 = 45680; inactive.
For PMCA (plasma membrane calcium ATPase) [DRSC17113], the values are mean Z score -0.314; ATP luminescence, replicate 1 = 70973; ATP luminescence, replicate 2 = 54750; inactive.
PMCA (plasma membrane calcium ATPase) [DRSC17114] scored mean Z score 0.489; ATP luminescence, replicate 1 = 88965; ATP luminescence, replicate 2 = 63907; inactive.
PMCA (plasma membrane calcium ATPase) [DRSC17154] showed mean Z score -0.336; ATP luminescence, replicate 1 = 41483; ATP luminescence, replicate 2 = 40599; inactive.
Silencing of Marf (Mitochondrial assembly regulatory factor) [DRSC28101] resulted in: mean Z score -0.171; ATP luminescence, replicate 1 = 57237; ATP luminescence, replicate 2 = 52168; inactive.
For Ndc1 (Nuclear division cycle 1) [DRSC15895], the values are mean Z score 1.79; ATP luminescence, replicate 1 = 67818; ATP luminescence, replicate 2 = 63479; active.
Silencing of Ndc1 (Nuclear division cycle 1) [DRSC39536] resulted in: mean Z score 1.95; ATP luminescence, replicate 1 = 71275; ATP luminescence, replicate 2 = 72262; active.
